Source: PubChem BioAssay AID1053208 (Peter MacCallum Cancer Centre, 2014)
Purpose: 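Genes whose silencing cuts survival of bone tumour cells only with doxorubicin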 (primary screen). Cell system: mouse osteosarcoma cells, early-passage culture from an engineered mouse model of fibroblastic bone tumour. Knock-down reagent: siRNA pool against mouse genes, 40 nM. Time to read-out: about 120 h (48 h before drug, then 72 h with drug). Treatment: doxorubicin 100 nM for 72 h, roughly 30-40% inhibitory dose. Detection: 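Viability read as ATP luminescence after 72 h of 100 nM doxorubicin or none, duplicate wells averaged, scaled to non-targeting siRNA, then expressed as robust z-scores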. Reading the numbers: viability z-score with doxorubicin: higher = more viable cells under doxorubicin; viability z-score without drug: higher = more viable cells with knock-down alone. Active means: 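a pool counts as active when its viability z-score with doxorubicin is -2 or below and its z-score without drug lies between -2 and 2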.
Here is one part, drawn at random, of about 17,000 deposited reagents. 788 of all reagents (4.7%) were called active. 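Calls rest on z-score classes alone; an extra cut-off of viability at most 70% of control was not applied to them.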 Reagents against one gene are numbered here. Further read-outs or replicates are left out here.

Cit #1: combined z-score class = no change with or without drug; viability z-score with doxorubicin = -0.45; viability z-score without drug = -1.52; Call = inactive
Cit #2: combined z-score class = no change with or without drug; viability z-score with doxorubicin = 0.56; viability z-score without drug = 0; Call = inactive
Gpn1: combined z-score class = low cell count with and without drug; viability z-score with doxorubicin = -4.27; viability z-score without drug = -2.87; Call = inactive
Bdh1: combined z-score class = no change with or without drug; viability z-score with doxorubicin = 0.34; viability z-score without drug = 0.17; Call = inactive
Stk31: combined z-score class = no change with or without drug; viability z-score with doxorubicin = -0.34; viability z-score without drug = -0.84; Call = inactive
Dsg4: combined z-score class = no change with or without drug; viability z-score with doxorubicin = 0.67; viability z-score without drug = 0.17; Call = inactive
Cfap126: combined z-score class = low cell count with doxorubicin only; viability z-score with doxorubicin = -2.02; viability z-score without drug = -1.18; Call = active
Txnrd2: combined z-score class = no change with or without drug; viability z-score with doxorubicin = 0.22; viability z-score without drug = 0.51; Call = inactive
Cpn1: combined z-score class = no change with or without drug; viability z-score with doxorubicin = -1.35; viability z-score without drug = -0.84; Call = inactive
Togaram2: combined z-score class = high cell count with doxorubicin only; viability z-score with doxorubicin = 2.25; viability z-score without drug = -0.34; Call = inactive
Pip4k2b: combined z-score class = no change with or without drug; viability z-score with doxorubicin = -1.01; viability z-score without drug = 0.51; Call = inactive
St8sia3: combined z-score class = no change with or without drug; viability z-score with doxorubicin = -0.22; viability z-score without drug = -0.51; Call = inactive
Epha3: combined z-score class = no change with or without drug; viability z-score with doxorubicin = -1.12; viability z-score without drug = -1.35; Call = inactive
Vmn1r76: combined z-score class = no change with or without drug; viability z-score with doxorubicin = 0.22; viability z-score without drug = -0.17; Call = inactive
Lhx8: combined z-score class = low cell count with and without drug; viability z-score with doxorubicin = -2.02; viability z-score without drug = -2.19; Call = inactive
Ep400: combined z-score class = no change with or without drug; viability z-score with doxorubicin = -1.46; viability z-score without drug = -1.18; Call = inactive

Laid out differently: 2 of the entries above
gene symbol,reagent,combined z-score class,viability z-score with doxorubicin,viability z-score without drug,Call
Togaram2,1,high cell count with doxorubicin only,2.25,-0.34,inactive
Pip4k2b,1,no change with or without drug,-1.01,0.51,inactive

Next reagents:
Ubxn4: combined z-score class = no change with or without drug; viability z-score with doxorubicin = 0.56; viability z-score without drug = 0.84; Call = inactive
Farsb: combined z-score class = no change with or without drug; viability z-score with doxorubicin = -1.69; viability z-score without drug = -0.84; Call = inactive
Or9m1b: combined z-score class = no change with or without drug; viability z-score with doxorubicin = 0.79; viability z-score without drug = 0.51; Call = inactive
Or8k36: combined z-score class = no change with or without drug; viability z-score with doxorubicin = -1.01; viability z-score without drug = -1.18; Call = inactive
Golga1: combined z-score class = no change with or without drug; viability z-score with doxorubicin = -0.67; viability z-score without drug = -0.17; Call = inactive
Slc4a3: combined z-score class = no change with or without drug; viability z-score with doxorubicin = 0.45; viability z-score without drug = 0.84; Call = inactive
Ass1: combined z-score class = no change with or without drug; viability z-score with doxorubicin = -0.22; viability z-score without drug = -0.67; Call = inactive
Snrpn: combined z-score class = no change with or without drug; viability z-score with doxorubicin = 0; viability z-score without drug = -1.18; Call = inactive
L3mbtl3: combined z-score class = no change with or without drug; viability z-score with doxorubicin = -0.34; viability z-score without drug = -0.17; Call = inactive
Med18: combined z-score class = no change with or without drug; viability z-score with doxorubicin = 1.46; viability z-score without drug = 1.18; Call = inactive
Psmd11: combined z-score class = low cell count with and without drug; viability z-score with doxorubicin = -4.27; viability z-score without drug = -4.55; Call = inactive
Mcoln2: combined z-score class = no change with or without drug; viability z-score with doxorubicin = 1.35; viability z-score without drug = 0.84; Call = inactive
